Entries after “also recorded” stand apart in the source; their conditions may differ. At least one peptide structure holds a part that was inferred or is arguable (an end, a ring closure or a residue). Some entries repeat one wording, which the source may state once for all of them. Square brackets hold non-standard residues; d marks the D form. Ends that are not written are not given here. Peptide text beside a SMILES is read from it.
What was measured:
[1] = test system: P. aeruginosa; test: Anti-biofilm formation (FIG. 24); type: cell-based; details: 1/8 MIC concentration (0.25 μM)
[2] = test system: Klebsiella pneumonia multi-drug resistant (MDR) clinical isolates; test: Bacterial growth (O.D. readings) of Kp isolates treated with D-amino acid substituted AMPs; type: cell-based
Description: Tables 3 and 4 provide the MIC data for the tested AMPs against a variety of infectious species. The following strains were tested: Enterococcus faecium MDR clinical isolates Ef 25153 and Ef 26125; methicillin-resistant Staphylococcus aureus (MRSA) clinical isolates USA300 and 150-10; Klebsiella pneumonia MDR clinical isolates C3, C5, A5, D7 and E6; and Pseudomonas aeruginosa MDR clinical isolates PA 82-8 and PA 129-5. […] Table 5 provides the data for the D-amino acid substituted AMPs and their bactericidal activities against various Klebsiella pneumonia multi-drug resistant (MDR) clinical isolates. All odd number Kp bacteria (isolated prior to colistin treatment; colistin sensitive) are paired with the corresponding even number Kp bacteria (isolated after colistin treatment; colistin resistant) from the same patient. O.D. readings represent the bacterial growth with a background reading of about 0.049+/−0.003.

[3] = test system: primary Human bronchial epithelial (HBE) cells; test: Toxicity to primary cells, tetrazolium-based viability assay; type: cell-based; details: H460 and Calu-1 vs HBE
Description: Anti-cancer activity of SEQ ID No. 26 and its D-amino acid modified enantiomer, SEQ ID. No. 34. SEQ ID. No. 34 was compared to SEQ ID No. 26 for selective anti-cancer activities using cancer cell lines of the respiratory system. See FIG. 22A for H460 (large cell lung cancer) and Calu-1 (non-small cell lung cancer) and FIG. 22B for primary Human bronchial epithelial (HBE) cells. The cells were grown to 80% confluence and then treated with each AMP for 2 h. Percent viability was examined using a tetrazolium-based assay assessing the mitochondrial integrity. […] No. 34; however SEQ ID. […] No. 34. Therefore, SEQ ID. […] No. 26.

[4] = test system: P. aeruginosa lipopolysaccharide (LPS)-induced secretion of tumor necrosis factor (TNF) in Raw (264.7) Cells; test: Neutralization of LPS-induced TNF secretion; type: cell-based; details: 1 μg/ml LPS
Description: Anti-inflammatory activity is based on the determination of cytokine stimulation of major inflammatory (e.g. TNF) or anti-inflammatory (e.g., IL-10) cytokines. For in vitro studies, TNF is measured using culture medium from LPS-stimulated macrophage cultures in the presence or absence of peptide treatment. For in vivo studies, cytokine levels in bronchoalveolar lavage (BAL) fluid were quantified using the mouse cytokine multiplex panel assay (Milliplex; Millipore, Billerica, Mass.). The expressions of cytokines were analyzed using the Luminex assay system, based on manufacturer's instructions and our previous publication. Standard recombinant protein solution was used to generate a standard curve for each analyzed protein. Absolute cytokine concentrations were calculated from the standard curve for each cytokine.
A high dosage (1 μg/ml) of LPS was used to stimulate the TNF secretion in raw cells.

[5] = test system: P. aeruginosa strain PAO1; test: P. aeruginosa bacteremia / septicemia model; type: in vivo, mice; details: FIG. 32 legend, i.p. infection
[6] = test system: Calu-1 (non-small cell lung cancer); test: Anti-cancer activity, tetrazolium-based viability assay; type: cell-based, human; details: Calu-1, treated 2 h
[7] = test system: H460 (large cell lung cancer); test: as above; type: cell-based, human; details: H460, treated 2 h
[8] = Kp strain 1 (colistin sensitive), background about 0.049
[9] = Kp strain 2 (colistin resistant), background about 0.049
[10] = Kp strain 3 (colistin sensitive)
[11] = Kp strain 4 (colistin resistant)
[12] = Kp strain 5 (colistin sensitive)
[13] = Kp strain 6 (colistin resistant)
[14] = Kp strain 7 (colistin sensitive)
[15] = Kp strain 8 (colistin resistant)
[16] = Kp strain 9 (colistin sensitive)
[17] = Kp strain 10 (colistin resistant)
[18] = Kp strain 11 (colistin sensitive)
[19] = Kp strain 12 (colistin resistant)
[20] = Kp strain 13 (colistin sensitive)
[21] = Kp strain 14 (colistin resistant)
[22] = Kp strain 15 (colistin sensitive)
[23] = Kp strain 16 (colistin resistant)
[24] = Kp strain 17 (colistin sensitive)
[25] = Kp strain 18 (colistin resistant)
[26] = Kp strain 19 (colistin sensitive)
[27] = Kp strain 20 (colistin resistant)
[28] = Kp strain 21 (colistin sensitive)
[29] = Kp strain 22 (colistin resistant)
[30] = Kp strain 23 (colistin sensitive)
[31] = Kp strain 24 (colistin resistant)

Compound | O.D. reading [2, 8] | O.D. reading [2, 9] | O.D. reading [2, 10] | O.D. reading [2, 11] | O.D. reading [2, 12] | O.D. reading [2, 13] | O.D. reading [2, 14] | O.D. reading [2, 15] | O.D. reading [2, 16] | O.D. reading [2, 17] | O.D. reading [2, 18] | O.D. reading [2, 19] | O.D. reading [2, 20] | O.D. reading [2, 21] | O.D. reading [2, 22] | O.D. reading [2, 23] | O.D. reading [2, 24] | O.D. reading [2, 25] | O.D. reading [2, 26] | neutralizing LPS-induced TNF secretion [4] | also measured
CC(C)[C@@H](NC(=O)[C@H](Cc1c[nH]c2ccccc12)NC(=O)[C@H](CCCNC(=N)N)NC(=O)[C@H](CCCNC(=N)N)NC(=O)[C@H](NC(=O)[C@H](NC(=O)[C@H](CCCNC(=N)N)NC(=O)[C@H](NC(=O)[C@H](NC(=O)[C@H](CCCNC(=N)N)NC(=O)[C@H](CCCNC(=N)N)NC(=O)[C@H](Cc1c[nH]c2ccccc12)NC(=O)[C@H](NC(=O)[C@H](CCCNC(=N)N)NC(=O)[C@H](CCCNC(=N)N)NC(=O)[C@H](NC(=O)[C@H](CCCNC(=N)N)NC(=O)[C@H](CCCNC(=N)N)NC(=O)[C@H](NC(=O)[C@H](Cc1c[nH]c2ccccc12)NC(=O)[C@H](CCCNC(=N)N)NC(=O)[C@@H](N)CCCNC(=N)N)C(C)C)C(C)C)C(C)C)C(C)C)C(C)C)C(C)C)C(C)C)C(=O)N[C@@H](CCCNC(=N)N)C(=O)N[C@@H](CCCNC(=N)N)C(=O)O [SEQ ID No. 34] (H-RRW[dV]RR[dV]RR[dV]WRR[dV][dV]R[dV][dV]RRW[dV]RR-OH; N-terminus and C-terminus assumed) | 0.043 | 0.048 | 0.051 | 0.051 | 0.05 | 0.062 | 0.049 | 0.047 | 0.045 | 0.05 | 0.051 | 0.053 | 0.05 | 0.05 | 0.049 | 0.045 | 0.042 | 0.046 | 0.048 | – | anti-biofilm activity [1]: maintains its anti-biofilm activity; O.D. reading [2, 27]: 0.051; O.D. reading [2, 28]: 0.049; O.D. reading [2, 29]: 0.049; O.D. reading [2, 30]: 0.048; O.D. reading [2, 31]: 0.05; selectivity cancer cells vs primary HBE cells [3]: more selectively anti-tumorous
LKKWWKKVKGLLGGLLGKVKKVIK [SEQ ID No. 17] | – | – | – | – | – | – | – | – | – | – | – | – | – | – | – | – | – | – | – | Display Neutralizing Activities | –
LKKWWKKVKGLLGGLLGKVKSVIK [SEQ ID No. 16] | – | – | – | – | – | – | – | – | – | – | – | – | – | – | – | – | – | – | – | good activity; also recorded: Display Neutralizing Activities | –
LKKWWKKVKGLLGGLLGKVTSVIK [SEQ ID No. 15] | – | – | – | – | – | – | – | – | – | – | – | – | – | – | – | – | – | – | – | Display Neutralizing Activities | host bacterial burden in sepsis model [5]: decreases host bacterial burden
RRWVRRVRRVWRRVVRVVRRWVRR [SEQ ID No. 26, reference compound] | 0.047 | 0.047 | 0.048 | 0.048 | 0.048 | 0.055 | 0.048 | 0.048 | 0.049 | 0.048 | 0.048 | 0.049 | 0.048 | 0.048 | 0.052 | 0.087 | 0.061 | 0.049 | 0.046 | does possess activity; also recorded: does Neutralize | anti-cancer activity (percent viability) [6]: more active against the cancer cells; O.D. reading [2, 27]: 0.051; O.D. reading [2, 28]: 0.05; O.D. reading [2, 29]: 0.046; O.D. reading [2, 30]: 0.046; O.D. reading [2, 31]: 0.047; anti-cancer activity (percent viability) [7]: more active against the cancer cells
